Data published in PubChem BioAssay AID493014 (National Center for Advancing Translational Sciences (NCATS), 2011).
The list shows a part of the results. The main result of the screen is listed elsewhere. These columns were measured beside it and carry no call. The list favours compounds with an active or inconclusive main result. Potencies come from curve fits of mixed quality, noted in brackets.

Assay: qHTS Assay to Find Inhibitors of Chronic Active B-Cell Receptor Signaling
Conditions: ABC-DLBCL IkBa-CBG/CBR reporter, luminescence ratio (green luciferase fused to IkBa over red control in TMD8 lymphoma cells), 4 h
How it was run: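 Doxycycline induced both beetle luciferases in TMD8 lymphoma cells; IKK-driven degradation limits the IkappaBalpha-fused green signal, while red luminescence normalises for cell number and nonspecific effects. Compounds tested up to 46 uM, 4 hrs.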

[1] = measured here: CBR red luminescence, cell number
[2] = measured here: IkBa-CBG green luminescence

Structure (SMILES) | AC50 [1] | AC50 [2]
COC(=O)CSc1nc(N)c(C#N)c(C(C)C)c1C#N | 0.794 µM [falling, full curve, poor fit] | 
O=C(Nc1ccc(N2CCCCC2)cc1)c1ccc([N+](=O)[O-])o1 | 3.16 µM [rising, partial curve, poor fit] | 
CN(C)S(=O)(=O)c1cccc(NC(=O)C(c2ccccc2)c2ccccc2)c1 | 35.5 µM [falling, single point] | 
COc1ccccc1/C=C(\NC(=O)c1ccc(OC)c(OC)c1)C(=O)Nc1cccc([N+](=O)[O-])c1 | 2.31 µM [rising, single point] | 
CCCc1ccc2oc(C(=O)N3CCCC3)c(C)c2c1 | 2.82 µM [rising, partial curve, poor fit] | 
Cc1cccc(C)c1-n1c(C)nn(-c2ncc(C(F)(F)F)cc2Cl)c1=O | 35.5 µM [rising, single point] | 
CCOC(=S)SCC(=O)Nc1nc(-c2ccc(Br)cc2)cs1 |  | 4.61 µM [falling, partial curve, poor fit]
Cc1cc(/C=C2\SC(=S)NC2=O)c(C)n1-c1cccc(O)c1 | 7.94 µM [rising, partial curve, poor fit] | 
CC1(C)COC(Cn2c3ccccc3c3ccccc32)O1 (centres undefined) | 12.6 µM [rising, single point] | 17.8 µM [falling, single point]
CCCCSc1nnc2nc(C)cc(C)n12 | 23.1 µM [rising, partial curve, poor fit] | 
O=S(=O)(c1ccc(NC(=S)NN=C2CCCCC2)cc1)N1CCOCC1 | 22.4 µM [rising, single point] | 25.1 µM [falling, single point]
C=CCn1c(SCC(=O)Nc2cc(Cl)ccc2C(=O)O)nc2sc(C)c(C)c2c1=O | 0.82 µM [falling, full curve] | 
CS(=O)(=O)N1CCN(CC2CC3C=CC2C3)CC1 (centres undefined) | 0.058 µM [rising, full curve, poor fit] | 
O=S(=O)(/N=C(/Nc1cccc2ccccc12)c1ccccc1)c1ccc(Br)cc1 | 15.8 µM [falling, partial curve, poor fit] | 
O=C(NC(CC(=O)N1CCN(c2ccccc2O)CC1)c1ccccc1)c1ccccc1Cl (centres undefined) | 29.1 µM [rising, partial curve, poor fit] | 
CC(=O)c1cccc(NC(=O)CSc2nc(=O)n(Cc3ccccn3)c3c2CCC3)c1 | 4.61 µM [falling, full curve, poor fit] | 
COc1ccc2c(c1)c(C(C)=O)c(C)n2C | 3.16 µM [rising, single point] | 
O=C(CSc1ccccn1)Nc1cccc(NC(=O)CSc2ccccn2)n1 | 5.8 µM [rising, partial curve, poor fit] | 
Cc1cc(C(=O)CSc2nnc(C3COc4ccccc4O3)n2C)c(C)n1-c1ccc(F)cc1 (centres undefined) | 32.6 µM [falling, single point] | 
COc1ccc(CC(=O)Nc2cccc(-c3ccc4nnc(C)n4n3)c2)cc1OC | 3.16 µM [rising, single point] | 
CCCn1cnc2cc(NC(=O)c3cccs3)ccc21 | 2.24 µM [falling, full curve] | 

Structure (SMILES) | AC50 [1] | AC50 [2]
COC(=O)c1ccc(NC(=O)c2c(NCc3ccc(OC)c(OC)c3)sc3c2CCCC3)cc1 | 7.94 µM [falling, partial curve] | 
O=C(Nc1ccc2nsnc2c1)C1CC1 | 35.5 µM [falling, single point] | 
CCOc1ccccc1OCC(=O)NN1Cc2ccccc2C1=N | 7.31 µM [falling, partial curve] | 
O=C(CSc1nc2cc([N+](=O)[O-])ccc2n1-c1ccccc1)NCc1ccc2c(c1)OCO2 | 0.92 µM [falling, full curve, poor fit] | 
COc1ccccc1N(CC(=O)NCCc1ccccc1)C(=O)CCC(=O)Nc1ccccn1 | 14.1 µM [falling, single point] | 
COc1ccc(C2=CC(=O)C[C@H](c3ccc(OC)c(OC)c3)C2)cc1 | 1.16 µM [rising, full curve, poor fit] | 
O=C1NC2=C(CCc3ccccc32)C(c2ccc(Br)cc2)N1 (centres undefined) | 14.6 µM [rising, partial curve, poor fit] | 
O=Cc1ccc(-c2cccc(C(=O)O)c2)o1 | 14.1 µM [falling, single point] | 
Cc1cccn2c(=O)c3cc(C(=O)N4CCCCC4)sc3nc12 | 11.2 µM [falling, single point] | 
COc1ccc(S(=O)(=O)N2CCN(C)CC2)cc1C | 16.4 µM [rising, single point] | 
COc1ccc(/C=N/NC(=O)c2cc(O)c(O)c(O)c2)cc1Cn1cc([N+](=O)[O-])cn1 | 11.2 µM [falling, partial curve, poor fit] | 
COc1cccc(/C=C2\SC(=O)N(CCC(=O)N3CCCCC3CCO)C2=O)c1 (centres undefined) | 14.1 µM [falling, partial curve, poor fit] | 
CCOc1ccc(CCNC(=O)CN2C(=O)NC3(CCc4ccccc43)C2=O)cc1OCC (centres undefined) | 8.2 µM [rising, partial curve, poor fit] | 
O=C(CN1CC[n+]2c(-c3ccccc3)csc21)c1ccc(Br)cc1 | 3.98 µM [falling, full curve, poor fit] | 
COC(=O)CN1C(=S)N(c2ccc(Cl)cc2)C(=O)C1CC(=O)Nc1ccc(F)cc1 (centres undefined) | 16.4 µM [falling, single point] | 
Cc1oc2cc(Br)c(O)c(Br)c2c1-c1ccccc1 | 15.8 µM [rising, single point] | 
Cc1nc(-c2ccc(NC(=O)c3ccc(Br)o3)cc2)cs1 | 20 µM [falling, single point] | 
O=C(Nc1ccc(O)c(C(=O)O)c1)Oc1ccccc1 | 11.2 µM [falling, partial curve] | 
COc1ccc(N(CC(=O)Nc2cccc(C(C)=O)c2)S(=O)(=O)c2ccc(NC(C)=O)cc2)cc1 | 11.2 µM [rising, partial curve, poor fit] | 
CCOC(=O)C(NC(=O)c1ccccc1)(N1CCOCC1)C(F)(F)F (centres undefined) | 12.6 µM [rising, single point] | 
COc1cccc(NC(=O)CSc2nncn2-c2ccccn2)c1 | 15.8 µM [falling, single point] | 

Structure (SMILES) | AC50 [1] | AC50 [2]
CCOC(=O)Cc1nnc(NC(=O)CSc2nnc3c(n2)[nH]c2ccccc23)s1 | 10 µM [falling, partial curve] | 
COc1ccccc1NC(=O)C(=O)NCC(c1ccco1)N1CCc2ccccc2C1 (centres undefined) | 4.11 µM [falling, full curve] | 
C=CCc1cc(OC)ccc1OCC(O)CN1CCN(c2ccc(OC)cc2)CC1 (centres undefined) | 5.8 µM [falling, single point] | 
CC(C)(C)Nc1c(N)c(=O)oc2ccccc12 | 11.6 µM [falling, partial curve, poor fit] | 
C/C=C/c1ccc(OCCCn2cncn2)c(OC)c1 | 3.26 µM [rising, partial curve, poor fit] | 
C/C=N/NC(=O)c1cc(Br)ccc1O | 0.82 µM [falling, full curve] | 
C=C[C@](C)(CC[C@@]1(C)C(C)CC(OC2OC(C)C(OC3OC(COC(C)=O)C(O)C(O)C3O)C(O)C2O)[C@@]2(C)C(C)=CCCC12)OC1OC(C)C(O[C@@H]2O[C@@H](C)C(O)C(O)[C@H]2O)C(O)C1O (some centres undefined) | 20.6 µM [rising, single point] | 
COc1cccc(NC(=O)c2sc3nc(N4CCOCC4)c4c(c3c2N)CCCC4)c1 | 14.1 µM [falling, partial curve] | 
COc1ccc(/C=C2\CCC(C3CCCC3)C2=O)c(OC)c1OC (centres undefined) | 2.24 µM [rising, full curve, poor fit] | 
Cc1ccc(NC(=O)NC(=O)CN2C(=O)NC3(CCc4ccccc43)C2=O)c(C)c1 (centres undefined) | 8.2 µM [falling, partial curve, poor fit] | 
CCN(CC)CCCNC(=O)CNC(=O)c1nn(-c2ccc(OC)cc2)c(=O)c2ccccc12 | 12.6 µM [falling, partial curve, poor fit] | 
O=C(Nc1cccc(S(=O)(=O)N2CCCCCC2)c1)c1ccc2c(c1)OCO2 | 25.9 µM [falling, single point] | 
CCCc1nnc(NC(=O)CCC(=O)N2CCN(CCOc3ccc(C)cc3)CC2)s1 | 1.3 µM [falling, full curve] | 
COc1ccc(-c2nc3ccccc3c(C(=O)Nc3ccc(S(=O)(=O)Nc4cc(C)on4)cc3)c2C)cc1 | 3.55 µM [falling, full curve] | 
CCN(CC)S(=O)(=O)c1ccc(Br)c(OC)c1 | 29.1 µM [falling, single point] | 
Cc1ccc(C)c(NC(=O)CCN2C(=O)[C@@H]3Cc4ccccc4CN3C2=O)c1 | 2.82 µM [rising, single point] | 
O=C(Nc1nc2ccccc2[nH]1)c1ccc(Cl)c([N+](=O)[O-])c1 | 14.1 µM [falling, partial curve, poor fit] | 
N#Cc1c(-c2cccs2)nc(SCc2ccc(Cl)cc2)[nH]c1=O | 35.5 µM [falling, single point] | 
CC(=O)CCC(=O)OCC(=O)Nc1ccc(SC(F)F)cc1 | 3.55 µM [falling, single point] | 
COc1ccc(-c2nc(SC(C)C(=O)NC3CC3)n[nH]2)cc1 (centres undefined) | 18.4 µM [falling, partial curve] | 
